Reference: publication PMC7275706
No constants are given. Whether binding was seen depends on the method and setting. A result given as binding can be weak or reduced; the word gives no strength.

Target: GST-ERK7 kinase domain (residues 2 to 358) (Toxoplasma gondii) (UniProt Q2QDG8)
Test: pull-down; GST-ERK7 2–358 bound to glutathione Sepharose in 10 mM Hepes pH 7.0, 300 mM NaCl, 10 mM DTT; equimolar purified SUMO-AC9 fusions incubated 5 to 10 min, four washes; Western blot with anti-His6; both purified

## SUMO fusion of AC9_(401–452) (from UniProt S7V0W9) (domain or fragment)
  binding: binds
